Experimental data: paper PMC6345853
Residue numbers refer to the chain shown, from its start. No constants are given. Whether binding was seen depends on the method and setting. Binding seen in cells or lysates may run through a third protein. Some results given as binding are weak or reduced against the parent protein; the word gives no strength. Sequences can lack the tags named with a protein.

Sequences of proteins named here, by UniProt entry; tags and fusion partners are left off.
UniProt Q93009: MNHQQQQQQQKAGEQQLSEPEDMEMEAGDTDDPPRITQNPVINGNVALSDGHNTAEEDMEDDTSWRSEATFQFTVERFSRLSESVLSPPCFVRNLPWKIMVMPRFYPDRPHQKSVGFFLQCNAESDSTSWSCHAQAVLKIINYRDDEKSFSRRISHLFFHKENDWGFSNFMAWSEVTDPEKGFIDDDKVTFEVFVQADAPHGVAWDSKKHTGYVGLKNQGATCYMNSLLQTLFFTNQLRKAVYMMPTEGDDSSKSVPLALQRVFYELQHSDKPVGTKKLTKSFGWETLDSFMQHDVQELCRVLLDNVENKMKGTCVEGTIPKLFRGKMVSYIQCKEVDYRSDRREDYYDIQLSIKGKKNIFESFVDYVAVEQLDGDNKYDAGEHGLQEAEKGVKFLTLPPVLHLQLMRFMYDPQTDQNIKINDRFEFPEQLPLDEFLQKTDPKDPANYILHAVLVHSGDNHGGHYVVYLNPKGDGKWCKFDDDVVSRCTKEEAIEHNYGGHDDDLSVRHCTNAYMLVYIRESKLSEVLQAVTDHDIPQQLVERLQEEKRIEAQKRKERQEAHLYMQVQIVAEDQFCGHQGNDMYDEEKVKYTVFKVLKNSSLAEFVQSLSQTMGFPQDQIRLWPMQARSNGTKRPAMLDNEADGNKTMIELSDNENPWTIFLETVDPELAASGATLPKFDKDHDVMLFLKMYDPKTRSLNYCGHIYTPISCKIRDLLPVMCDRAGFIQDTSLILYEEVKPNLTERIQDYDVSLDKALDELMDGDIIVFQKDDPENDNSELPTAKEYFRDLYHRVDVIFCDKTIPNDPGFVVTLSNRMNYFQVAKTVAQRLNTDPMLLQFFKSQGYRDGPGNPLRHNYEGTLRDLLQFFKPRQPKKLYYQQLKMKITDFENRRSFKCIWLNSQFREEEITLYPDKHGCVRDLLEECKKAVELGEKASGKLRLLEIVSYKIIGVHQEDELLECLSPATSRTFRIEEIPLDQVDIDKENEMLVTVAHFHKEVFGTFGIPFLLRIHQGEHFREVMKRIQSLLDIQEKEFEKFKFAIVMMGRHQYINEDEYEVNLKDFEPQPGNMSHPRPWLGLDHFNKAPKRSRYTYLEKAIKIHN

Experiments:
[1] = molecular target: T1, GST-Usp7 (Drosophila) (UniProt Q9VYQ8); test: pull-down; GST fusion protein-loaded GSH beads incubated with lysates of S2 cells expressing the partner, 4 °C for 2 h, washed three times with PBS, immunoblot; only the target purified
T1 sequence: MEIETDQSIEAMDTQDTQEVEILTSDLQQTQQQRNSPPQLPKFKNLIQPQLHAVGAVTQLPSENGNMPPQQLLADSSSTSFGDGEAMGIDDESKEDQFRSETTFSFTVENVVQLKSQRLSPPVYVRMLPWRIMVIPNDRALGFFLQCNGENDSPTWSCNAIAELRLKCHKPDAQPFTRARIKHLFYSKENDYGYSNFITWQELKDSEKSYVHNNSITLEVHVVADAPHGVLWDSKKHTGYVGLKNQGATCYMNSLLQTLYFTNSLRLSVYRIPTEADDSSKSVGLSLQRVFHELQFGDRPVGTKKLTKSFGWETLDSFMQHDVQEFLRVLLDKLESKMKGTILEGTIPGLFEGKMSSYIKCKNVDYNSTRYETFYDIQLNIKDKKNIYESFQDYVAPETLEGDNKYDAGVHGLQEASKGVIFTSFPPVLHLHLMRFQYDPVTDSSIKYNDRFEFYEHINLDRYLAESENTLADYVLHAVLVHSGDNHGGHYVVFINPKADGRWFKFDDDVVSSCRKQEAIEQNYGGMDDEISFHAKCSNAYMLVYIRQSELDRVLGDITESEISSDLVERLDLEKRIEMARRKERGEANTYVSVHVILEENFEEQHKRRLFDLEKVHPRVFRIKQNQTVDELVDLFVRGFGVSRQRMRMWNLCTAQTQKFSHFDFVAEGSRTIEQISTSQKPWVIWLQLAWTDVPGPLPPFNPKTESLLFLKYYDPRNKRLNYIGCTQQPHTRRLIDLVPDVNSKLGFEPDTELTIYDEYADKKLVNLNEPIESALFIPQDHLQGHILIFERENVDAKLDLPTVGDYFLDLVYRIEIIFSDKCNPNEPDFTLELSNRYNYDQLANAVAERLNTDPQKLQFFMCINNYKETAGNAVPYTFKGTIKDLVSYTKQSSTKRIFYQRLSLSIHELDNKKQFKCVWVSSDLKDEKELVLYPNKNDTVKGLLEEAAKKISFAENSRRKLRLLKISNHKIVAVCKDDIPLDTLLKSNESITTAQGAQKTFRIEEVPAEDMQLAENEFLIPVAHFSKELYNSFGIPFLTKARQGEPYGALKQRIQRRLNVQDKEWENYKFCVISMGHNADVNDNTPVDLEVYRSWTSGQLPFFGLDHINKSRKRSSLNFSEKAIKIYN

[2] = molecular target: Fg-HAUSP (expressed in S2 cells) (human) (UniProt Q93009); test: co-IP; S2 cells transfected with tagged constructs, harvested 48 h after transfection, IP and immunoblot; in some panels with co-expressed Hpo, Hpo-KD, Wts or Wts-KD
[3] = molecular target: T2, Fg-Usp7-CA (Drosophila) (UniProt Q9VYQ8); test: as above
T2 sequence: T1 sequence with C250A

[4] = molecular target: T3, Fg-Usp7 (Drosophila) (UniProt Q9VYQ8); test: as above
T3 sequence: T1 sequence

Measured: binding

B1: Myc-Yki (protein, UniProt Q45VV3 1-395)
chain: MLTTMSASSNTNSLIEKEIDDEDMLSPIKSNNLVVRVNQDTDDNLQALFDSVLNPGDAKRPLQLPLRMRKLPNSFFTPPAPSHSRANSADSTYDAGSQSSINIGNKASIVQQPDGQSPIAAIPQLQIQPSPQHSRLAIHHSRARSSPASLQQNYNVRARSDAAAANNPNANPSSQQQPAGPTFPENSAQEFPSGAPASSAIDLDAMNTCMSQDIPMSMQTVHKKQRSYDVISPIQLNRQLGALPPGWEQAKTNDGQIYYLNHTTKSTQWEDPRIQYRQQQQILMAERIKQNDVLQTTKQTTTSTIANNLGPLPDGWEQAVTESGDLYFINHIDRTTSWNDPRMQSGLSVLDCPDNLVSSLQIEDNLCSNLFNDAQAIVNPPSSHKPDDLEWYKIN
binds: all assays above
